From the supplement of paper PMC6411743 come the findings set out here.

Amino acid sequences for entries named in this document (tags omitted). A change or cut given only in a name is not applied to a line headed by its entry.
UniProt O43929: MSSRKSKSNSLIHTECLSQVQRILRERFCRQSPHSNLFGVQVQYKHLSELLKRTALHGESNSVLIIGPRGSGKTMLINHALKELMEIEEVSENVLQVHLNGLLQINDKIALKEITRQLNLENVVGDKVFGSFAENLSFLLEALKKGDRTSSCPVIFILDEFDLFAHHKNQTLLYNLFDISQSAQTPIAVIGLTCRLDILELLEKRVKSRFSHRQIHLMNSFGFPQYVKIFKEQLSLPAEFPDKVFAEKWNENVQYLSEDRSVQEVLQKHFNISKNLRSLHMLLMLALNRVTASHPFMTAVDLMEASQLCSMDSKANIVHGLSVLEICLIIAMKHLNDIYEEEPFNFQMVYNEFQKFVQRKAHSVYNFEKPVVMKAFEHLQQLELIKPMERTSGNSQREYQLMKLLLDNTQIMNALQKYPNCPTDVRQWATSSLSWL
UniProt O14980, whole entry: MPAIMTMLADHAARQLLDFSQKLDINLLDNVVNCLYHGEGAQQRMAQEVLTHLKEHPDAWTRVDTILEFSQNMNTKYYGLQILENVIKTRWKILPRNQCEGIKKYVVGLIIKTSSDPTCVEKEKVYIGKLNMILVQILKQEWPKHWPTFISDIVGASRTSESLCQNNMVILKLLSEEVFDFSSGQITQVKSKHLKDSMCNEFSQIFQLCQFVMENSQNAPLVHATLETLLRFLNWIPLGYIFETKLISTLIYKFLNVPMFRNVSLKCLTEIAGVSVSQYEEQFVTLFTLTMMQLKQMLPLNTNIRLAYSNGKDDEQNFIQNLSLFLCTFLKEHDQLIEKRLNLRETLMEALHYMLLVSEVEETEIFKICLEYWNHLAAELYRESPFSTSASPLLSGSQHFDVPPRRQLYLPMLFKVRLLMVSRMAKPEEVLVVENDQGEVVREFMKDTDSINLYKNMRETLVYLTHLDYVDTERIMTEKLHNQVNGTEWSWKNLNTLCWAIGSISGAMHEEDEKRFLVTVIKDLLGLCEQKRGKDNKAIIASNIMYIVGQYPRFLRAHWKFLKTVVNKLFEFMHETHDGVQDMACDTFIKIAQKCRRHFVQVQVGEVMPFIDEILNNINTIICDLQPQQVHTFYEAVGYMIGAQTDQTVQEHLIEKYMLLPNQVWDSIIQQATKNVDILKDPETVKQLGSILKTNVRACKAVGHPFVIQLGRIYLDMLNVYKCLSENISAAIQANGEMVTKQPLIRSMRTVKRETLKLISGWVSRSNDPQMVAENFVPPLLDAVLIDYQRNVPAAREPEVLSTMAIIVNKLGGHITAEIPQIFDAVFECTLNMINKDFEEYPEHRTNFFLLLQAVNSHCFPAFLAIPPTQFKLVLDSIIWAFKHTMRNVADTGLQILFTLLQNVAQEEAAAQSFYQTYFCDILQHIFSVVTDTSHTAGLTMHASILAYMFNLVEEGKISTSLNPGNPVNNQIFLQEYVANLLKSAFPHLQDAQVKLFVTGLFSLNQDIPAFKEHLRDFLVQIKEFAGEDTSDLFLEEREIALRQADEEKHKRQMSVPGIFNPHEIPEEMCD
UniProt O43422: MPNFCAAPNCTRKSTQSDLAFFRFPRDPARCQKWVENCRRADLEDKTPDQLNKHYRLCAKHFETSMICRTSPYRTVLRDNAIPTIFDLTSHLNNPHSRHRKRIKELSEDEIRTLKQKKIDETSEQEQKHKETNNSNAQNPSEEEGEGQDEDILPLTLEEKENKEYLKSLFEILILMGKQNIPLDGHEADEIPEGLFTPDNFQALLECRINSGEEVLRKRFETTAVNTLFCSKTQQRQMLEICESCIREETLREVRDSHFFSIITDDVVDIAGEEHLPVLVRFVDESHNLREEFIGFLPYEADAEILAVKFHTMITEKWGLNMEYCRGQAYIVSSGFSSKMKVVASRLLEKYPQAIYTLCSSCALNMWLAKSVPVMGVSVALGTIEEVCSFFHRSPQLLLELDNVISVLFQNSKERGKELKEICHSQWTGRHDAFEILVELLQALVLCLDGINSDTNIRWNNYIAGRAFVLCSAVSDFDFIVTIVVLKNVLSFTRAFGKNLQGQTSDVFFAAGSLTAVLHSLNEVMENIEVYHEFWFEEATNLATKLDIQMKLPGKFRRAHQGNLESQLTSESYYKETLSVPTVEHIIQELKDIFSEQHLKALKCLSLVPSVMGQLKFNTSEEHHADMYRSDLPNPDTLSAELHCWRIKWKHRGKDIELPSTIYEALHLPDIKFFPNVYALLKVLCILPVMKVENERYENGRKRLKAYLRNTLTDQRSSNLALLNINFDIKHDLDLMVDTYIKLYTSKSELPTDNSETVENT
UniProt Q8IX01: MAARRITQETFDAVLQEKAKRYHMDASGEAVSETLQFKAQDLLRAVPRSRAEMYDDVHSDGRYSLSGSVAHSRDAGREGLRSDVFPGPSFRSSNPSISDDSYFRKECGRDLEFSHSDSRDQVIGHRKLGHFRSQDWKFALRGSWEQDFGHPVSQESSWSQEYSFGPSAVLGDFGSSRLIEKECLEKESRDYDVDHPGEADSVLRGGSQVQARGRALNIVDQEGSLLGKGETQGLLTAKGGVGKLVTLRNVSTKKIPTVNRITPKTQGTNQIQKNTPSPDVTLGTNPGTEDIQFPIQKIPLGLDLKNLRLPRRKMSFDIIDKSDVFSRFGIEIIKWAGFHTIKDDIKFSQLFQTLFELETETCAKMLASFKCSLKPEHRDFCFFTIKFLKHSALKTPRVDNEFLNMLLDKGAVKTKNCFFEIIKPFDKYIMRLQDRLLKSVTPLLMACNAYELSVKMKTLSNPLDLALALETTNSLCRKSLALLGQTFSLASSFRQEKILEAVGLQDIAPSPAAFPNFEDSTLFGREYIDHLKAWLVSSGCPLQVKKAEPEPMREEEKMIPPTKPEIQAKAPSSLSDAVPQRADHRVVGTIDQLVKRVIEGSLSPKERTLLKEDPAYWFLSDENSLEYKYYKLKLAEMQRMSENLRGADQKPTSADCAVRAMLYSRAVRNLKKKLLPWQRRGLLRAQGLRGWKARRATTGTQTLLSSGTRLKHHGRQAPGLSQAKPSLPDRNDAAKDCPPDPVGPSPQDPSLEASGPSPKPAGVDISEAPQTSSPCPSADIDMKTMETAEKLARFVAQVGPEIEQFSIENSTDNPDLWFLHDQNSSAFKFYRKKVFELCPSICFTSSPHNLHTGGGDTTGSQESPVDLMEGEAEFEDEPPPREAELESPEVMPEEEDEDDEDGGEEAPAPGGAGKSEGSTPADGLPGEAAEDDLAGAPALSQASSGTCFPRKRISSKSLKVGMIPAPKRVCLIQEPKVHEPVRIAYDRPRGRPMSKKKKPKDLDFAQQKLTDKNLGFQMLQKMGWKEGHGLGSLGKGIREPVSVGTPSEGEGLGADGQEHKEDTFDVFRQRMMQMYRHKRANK
UniProt O43296: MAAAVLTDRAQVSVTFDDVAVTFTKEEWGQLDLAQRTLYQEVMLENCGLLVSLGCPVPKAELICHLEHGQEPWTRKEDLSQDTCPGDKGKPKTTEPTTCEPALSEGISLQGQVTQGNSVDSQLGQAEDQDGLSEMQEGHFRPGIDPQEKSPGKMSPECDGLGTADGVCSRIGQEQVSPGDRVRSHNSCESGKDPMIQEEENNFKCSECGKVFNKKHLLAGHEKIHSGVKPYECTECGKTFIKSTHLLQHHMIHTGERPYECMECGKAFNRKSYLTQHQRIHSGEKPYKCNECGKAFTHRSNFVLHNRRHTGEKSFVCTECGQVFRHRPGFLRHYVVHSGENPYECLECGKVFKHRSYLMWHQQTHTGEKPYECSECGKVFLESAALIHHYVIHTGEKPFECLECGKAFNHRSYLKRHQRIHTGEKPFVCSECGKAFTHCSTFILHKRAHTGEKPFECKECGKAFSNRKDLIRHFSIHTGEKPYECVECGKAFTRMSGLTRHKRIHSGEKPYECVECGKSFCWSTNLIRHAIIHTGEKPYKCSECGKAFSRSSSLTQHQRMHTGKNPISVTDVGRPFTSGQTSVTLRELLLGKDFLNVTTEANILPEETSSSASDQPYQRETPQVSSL
UniProt O15525: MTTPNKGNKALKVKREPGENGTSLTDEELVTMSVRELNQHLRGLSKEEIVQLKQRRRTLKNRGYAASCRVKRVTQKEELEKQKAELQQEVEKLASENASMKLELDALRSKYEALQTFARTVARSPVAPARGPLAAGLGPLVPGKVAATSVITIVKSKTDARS
UniProt Q9UI14, whole entry: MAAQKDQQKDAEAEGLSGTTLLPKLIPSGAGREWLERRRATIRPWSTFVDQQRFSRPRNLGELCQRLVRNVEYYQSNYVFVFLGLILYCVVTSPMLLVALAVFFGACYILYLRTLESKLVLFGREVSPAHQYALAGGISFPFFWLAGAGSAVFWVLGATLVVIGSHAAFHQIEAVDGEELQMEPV
UniProt O43615: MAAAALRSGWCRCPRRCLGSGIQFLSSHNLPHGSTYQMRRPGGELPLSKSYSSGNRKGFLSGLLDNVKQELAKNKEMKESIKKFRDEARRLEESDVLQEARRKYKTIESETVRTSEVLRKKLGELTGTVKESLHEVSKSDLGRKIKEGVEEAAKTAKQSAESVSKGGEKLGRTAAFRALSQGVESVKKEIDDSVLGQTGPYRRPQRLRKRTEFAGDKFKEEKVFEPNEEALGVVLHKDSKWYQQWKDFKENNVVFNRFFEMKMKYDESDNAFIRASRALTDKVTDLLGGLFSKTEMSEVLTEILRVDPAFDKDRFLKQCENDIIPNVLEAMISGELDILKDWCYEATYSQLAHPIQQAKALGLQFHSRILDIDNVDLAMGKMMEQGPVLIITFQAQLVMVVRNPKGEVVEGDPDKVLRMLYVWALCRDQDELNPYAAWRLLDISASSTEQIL
UniProt O00767: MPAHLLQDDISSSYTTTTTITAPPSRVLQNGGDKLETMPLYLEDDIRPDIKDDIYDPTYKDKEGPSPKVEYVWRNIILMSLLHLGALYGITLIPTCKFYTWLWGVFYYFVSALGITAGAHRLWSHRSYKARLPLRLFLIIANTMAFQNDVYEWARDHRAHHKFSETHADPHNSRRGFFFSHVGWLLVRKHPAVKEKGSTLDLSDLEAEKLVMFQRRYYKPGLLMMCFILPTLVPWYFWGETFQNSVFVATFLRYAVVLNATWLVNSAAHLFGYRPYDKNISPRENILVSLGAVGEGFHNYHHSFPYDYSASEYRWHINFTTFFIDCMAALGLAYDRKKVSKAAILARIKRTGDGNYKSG
UniProt O00463: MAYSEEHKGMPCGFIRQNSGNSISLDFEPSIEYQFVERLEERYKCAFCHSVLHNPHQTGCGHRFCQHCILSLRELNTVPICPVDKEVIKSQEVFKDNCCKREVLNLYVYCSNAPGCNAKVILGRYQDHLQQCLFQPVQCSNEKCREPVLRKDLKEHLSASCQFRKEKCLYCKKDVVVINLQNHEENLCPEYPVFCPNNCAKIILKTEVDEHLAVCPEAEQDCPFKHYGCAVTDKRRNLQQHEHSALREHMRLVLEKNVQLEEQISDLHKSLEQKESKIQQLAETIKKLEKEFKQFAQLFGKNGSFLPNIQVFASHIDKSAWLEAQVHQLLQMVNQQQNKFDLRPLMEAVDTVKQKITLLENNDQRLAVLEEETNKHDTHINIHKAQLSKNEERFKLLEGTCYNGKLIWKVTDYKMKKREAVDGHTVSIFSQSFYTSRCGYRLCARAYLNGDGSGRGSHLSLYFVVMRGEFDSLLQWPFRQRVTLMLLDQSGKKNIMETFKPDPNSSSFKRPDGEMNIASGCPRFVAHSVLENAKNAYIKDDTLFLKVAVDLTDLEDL
UniProt O14880: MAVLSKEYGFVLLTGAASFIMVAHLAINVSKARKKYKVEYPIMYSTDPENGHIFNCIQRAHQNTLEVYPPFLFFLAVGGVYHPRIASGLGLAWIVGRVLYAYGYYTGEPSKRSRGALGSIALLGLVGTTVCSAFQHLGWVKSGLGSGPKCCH
UniProt O15160, whole entry: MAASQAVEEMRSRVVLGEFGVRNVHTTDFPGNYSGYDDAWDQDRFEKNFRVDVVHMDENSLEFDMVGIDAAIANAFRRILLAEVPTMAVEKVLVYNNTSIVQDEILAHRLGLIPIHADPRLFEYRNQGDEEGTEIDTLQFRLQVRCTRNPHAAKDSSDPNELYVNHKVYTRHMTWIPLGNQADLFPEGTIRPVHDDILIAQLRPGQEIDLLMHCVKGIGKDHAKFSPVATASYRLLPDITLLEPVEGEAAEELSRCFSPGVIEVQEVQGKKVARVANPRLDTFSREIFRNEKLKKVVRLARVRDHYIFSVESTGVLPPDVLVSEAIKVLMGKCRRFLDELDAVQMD
UniProt O43567: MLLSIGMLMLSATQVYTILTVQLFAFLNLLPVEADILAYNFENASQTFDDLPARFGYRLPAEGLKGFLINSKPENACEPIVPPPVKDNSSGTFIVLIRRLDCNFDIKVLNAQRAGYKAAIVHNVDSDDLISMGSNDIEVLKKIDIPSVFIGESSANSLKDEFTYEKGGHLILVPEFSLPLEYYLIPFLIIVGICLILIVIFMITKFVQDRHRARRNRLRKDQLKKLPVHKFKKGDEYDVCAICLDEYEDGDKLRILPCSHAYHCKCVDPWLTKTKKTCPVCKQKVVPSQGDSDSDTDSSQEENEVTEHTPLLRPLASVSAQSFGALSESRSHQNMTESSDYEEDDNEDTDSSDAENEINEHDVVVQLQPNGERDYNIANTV

Compound in the assay: Nc1ncnc2c1ncn2[C@@H]1O[C@H](COP(=O)(O)OP(=O)(O)OP(=O)(O)O)[C@@H](O)[C@H]1O [adenosine triphosphate]
The experiment in a line: NP40-soluble protein abundance relative to vehicle (solubility fold change) (ratio); higher = more soluble protein in presence of ATP. The gist of the method: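 Crude Jurkat lysate, prepared by Dounce homogenisation, was exposed to eight concentrations from 0.1 to 10 mM for 10 min at room temperature and then 3 min at 37 °C. Solubilisation used 0.8% NP40 with benzonase for 60 min at 4 °C, followed by ultracentrifugation and TMT labelling of the supernatant for LC-MS/MS. After vsn normalisation of intensities, each value is the fold change against the detergent-processed vehicle within each replicate, across three independent experiments.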

± gives the standard deviation of the averaged measurements. The entries are a selection whose mix differs from that of the whole data set. Most entries show no effect beyond the scatter of the controls.

For UniProt O15173 and related entries, the NP40-soluble protein abundance reads like this: (concentration: 0.1mM) 0.91 ± 0.1; (concentration: 0.5mM) 0.837 ± 0.14.
The corresponding values for “M0R2P6 and related entries (UniProt Q8TBC3)” are 1.13 ± 0.24 and 1.02 ± 0.014.
Consider UniProt O00267 and related entries, for which the NP40-soluble protein abundance worked out at 1.06 ± 0.037 (concentration: 0.1mM) and 1.06 ± 0.024 (concentration: 0.5mM).
Consider UniProt O43929, for which the NP40-soluble protein abundance (concentration: 0.1mM) turned out to be 1.07 ± 0.089 and the NP40-soluble protein abundance (concentration: 0.5mM) turned out to be 1.05 ± 0.11.
Take XPO1 (UniProt O14980): the NP40-soluble protein abundance is, setting by setting: (concentration: 0.1mM) 1.02 ± 0.069; (concentration: 0.5mM) 1.03 ± 0.026.
As for UniProt O43422, the NP40-soluble protein abundance is, setting by setting: (concentration: 0.1mM) 1.04 ± 0.11; (concentration: 0.5mM) 1 ± 0.12.
The corresponding values for UniProt O00217 and related entries are 0.966 ± 0.016 and 0.979 ± 0.013.
For “M0R2Z9 and related entries (UniProt Q8IX01)” the same measures were 0.965 ± 0.07 and 1.05 ± 0.073.
The corresponding values for BACH1 (UniProt O14867) are 0.966 ± 0.029 and 0.938 ± 0.024.
With UniProt O43296, the NP40-soluble protein abundance is, setting by setting: (concentration: 0.1mM) 1.01 ± 0.062; (concentration: 0.5mM) 0.957 ± 0.039.
Regarding MAFG (UniProt O15525), the NP40-soluble protein abundance is, setting by setting: (concentration: 0.1mM) 0.955 ± 0.083; (concentration: 0.5mM) 0.885 ± 0.084.
“M0R3D4 and related entries (UniProt Q9UI14)”: the NP40-soluble protein abundance (concentration: 0.1mM) stood at 1.07 ± 0.051 and the NP40-soluble protein abundance (concentration: 0.5mM) came to 0.958 ± 0.028.
On to PMM2 (UniProt O15305), for which the NP40-soluble protein abundance (concentration: 0.1mM) worked out at 1.05 ± 0.068 and the NP40-soluble protein abundance (concentration: 0.5mM) was determined as 1.05 ± 0.078.
Take “M0R2A0 and related entries (UniProt Q5UCC4)”: the NP40-soluble protein abundance was 0.971 ± 0.051 (concentration: 0.1mM) and 0.967 ± 0.041 (concentration: 0.5mM).
As for “UniProt O00499-2|O00499-6|O00499-4|O00499-7|O00499-9”, the NP40-soluble protein abundance by setting is: (concentration: 0.1mM) 0.983 ± 0.025; (concentration: 0.5mM) 0.987 ± 0.032.
For UniProt O00471 and related entries, the NP40-soluble protein abundance (concentration: 0.1mM) came out at 1 ± 0.028 and the NP40-soluble protein abundance (concentration: 0.5mM) was determined as 1.01 ± 0.036.
For the target UniProt O43295 and related entries, the NP40-soluble protein abundance was found to be 0.968 ± 0.096 (concentration: 0.1mM) and 1.03 ± 0.077 (concentration: 0.5mM).
With CHD2 (UniProt O14647), the NP40-soluble protein abundance by setting is: (concentration: 0.1mM) 1.03 ± 0.055; (concentration: 0.5mM) 1.06 ± 0.11.
Take “M0R0P8 and related entries (UniProt Q13459)”: the NP40-soluble protein abundance is, setting by setting: (concentration: 0.1mM) 1.03 ± 0.035; (concentration: 0.5mM) 1.06 ± 0.075.
For UniProt O00231 and related entries the same measures were 0.998 ± 0.051 and 0.965 ± 0.023.
TIMM44 (UniProt O43615): the NP40-soluble protein abundance runs as follows: (concentration: 0.1mM) 0.993 ± 0.022; (concentration: 0.5mM) 1.01 ± 0.051.
The corresponding values for SCD (UniProt O00767) are 0.96 ± 0.04 and 0.947 ± 0.018.
As for TRAF5 (UniProt O00463), the NP40-soluble protein abundance reads like this: (concentration: 0.1mM) 1.05 ± 0.074; (concentration: 0.5mM) 1.06 ± 0.082.
In the case of OIP5 (UniProt O43482), the NP40-soluble protein abundance worked out at 0.927 ± 0.17 (concentration: 0.1mM) and 0.844 ± 0.062 (concentration: 0.5mM).
For the target SYNJ2 (UniProt O15056), the NP40-soluble protein abundance by setting is: (concentration: 0.1mM) 1.02 ± 0.025; (concentration: 0.5mM) 1.04 ± 0.018.
UniProt O60341: the NP40-soluble protein abundance was determined as 1.01 ± 0.026 (concentration: 0.1mM) and 1.03 ± 0.044 (concentration: 0.5mM).
Consider PRPF3 (UniProt O43395), for which the NP40-soluble protein abundance runs as follows: (concentration: 0.1mM) 1.09 ± 0.039; (concentration: 0.5mM) 1.09 ± 0.026.
On to BET1 (UniProt O15155), for which the NP40-soluble protein abundance (concentration: 0.1mM) was 0.975 ± 0.052 and the NP40-soluble protein abundance (concentration: 0.5mM) stood at 1.02 ± 0.015.
In the case of PSMD9 (UniProt O00233), the NP40-soluble protein abundance is, setting by setting: (concentration: 0.1mM) 0.945 ± 0.011; (concentration: 0.5mM) 0.9668 ± 0.0094.
For UniProt O00716-2 the same measures were 0.932 ± 0.047 and 1.048 ± 0.0075.
As to TIMM23 (UniProt O14925), the NP40-soluble protein abundance is, setting by setting: (concentration: 0.1mM) 1.01 ± 0.052; (concentration: 0.5mM) 0.944 ± 0.042.
On to RAD21 (UniProt O60216), for which the NP40-soluble protein abundance stood at 0.981 ± 0.026 (concentration: 0.1mM) and 0.993 ± 0.056 (concentration: 0.5mM).
For UniProt O15037, the NP40-soluble protein abundance is, setting by setting: (concentration: 0.1mM) 0.952 ± 0.1; (concentration: 0.5mM) 0.936 ± 0.1.
ZZEF1 (UniProt O43149): the NP40-soluble protein abundance reads like this: (concentration: 0.1mM) 1.03 ± 0.073; (concentration: 0.5mM) 1.04 ± 0.085.
The corresponding values for UniProt O00743 and related entries are 1.06 ± 0.12 and 1.04 ± 0.091.
PFDN6 (UniProt O15212): the NP40-soluble protein abundance runs as follows: (concentration: 0.1mM) 0.923 ± 0.038; (concentration: 0.5mM) 0.895 ± 0.046.
The corresponding values for UniProt O43665 and related entries are 0.906 ± 0.13 and 0.872 ± 0.16.
As to ACOX3 (UniProt O15254), the NP40-soluble protein abundance (concentration: 0.1mM) was determined as 1.06 ± 0.04 and the NP40-soluble protein abundance (concentration: 0.5mM) was 1.03 ± 0.066.
Take UniProt O43299 and related entries: the NP40-soluble protein abundance reads like this: (concentration: 0.1mM) 1.05 ± 0.046; (concentration: 0.5mM) 0.964 ± 0.03.
With VWA5A (UniProt O00534), the NP40-soluble protein abundance was found to be 1.22 ± 0.12 (concentration: 0.1mM) and 1.17 ± 0.098 (concentration: 0.5mM).
On to UniProt O14974 and related entries, for which the NP40-soluble protein abundance turned out to be 0.95 ± 0.034 (concentration: 0.1mM) and 1.01 ± 0.071 (concentration: 0.5mM).
Turning to UniProt O43278 and related entries, the NP40-soluble protein abundance is 0.987 ± 0.064 (concentration: 0.1mM) and 0.971 ± 0.049 (concentration: 0.5mM).
Take UniProt O43156: the NP40-soluble protein abundance runs as follows: (concentration: 0.1mM) 0.983 ± 0.062; (concentration: 0.5mM) 0.965 ± 0.039.
For the target KRIT1 (UniProt O00522), the NP40-soluble protein abundance reads like this: (concentration: 0.1mM) 1.03 ± 0.048; (concentration: 0.5mM) 1.09 ± 0.042.
Consider YKT6 (UniProt O15498), for which the NP40-soluble protein abundance by setting is: (concentration: 0.1mM) 1.01 ± 0.056; (concentration: 0.5mM) 1.02 ± 0.071.
Consider UniProt O14733 and related entries, for which the NP40-soluble protein abundance (concentration: 0.1mM) is 1.08 ± 0.036 and the NP40-soluble protein abundance (concentration: 0.5mM) came to 1.12 ± 0.024.
As for UniProt O43684 and related entries, the NP40-soluble protein abundance reads like this: (concentration: 0.1mM) 1.06 ± 0.062; (concentration: 0.5mM) 1.11 ± 0.027.
As for UniProt O15439 and related entries, the NP40-soluble protein abundance (concentration: 0.1mM) came out at 1.03 ± 0.052 and the NP40-soluble protein abundance (concentration: 0.5mM) came out at 0.873 ± 0.056.
Regarding UniProt O14880 and related entries, the NP40-soluble protein abundance runs as follows: (concentration: 0.1mM) 1.03 ± 0.049; (concentration: 0.5mM) 1.1 ± 0.092.
On to MRPS12 (UniProt O15235), for which the NP40-soluble protein abundance was found to be 0.882 ± 0.099 (concentration: 0.1mM) and 0.931 ± 0.14 (concentration: 0.5mM).
Turning to EEF2K (UniProt O00418), the NP40-soluble protein abundance runs as follows: (concentration: 0.1mM) 1.02 ± 0.033; (concentration: 0.5mM) 1.03 ± 0.051.
Turning to AKAP8 (UniProt O43823), the NP40-soluble protein abundance (concentration: 0.1mM) amounted to 0.986 ± 0.015 and the NP40-soluble protein abundance (concentration: 0.5mM) is 1.06 ± 0.11.
As for GIPC1 (UniProt O14908), the NP40-soluble protein abundance turned out to be 1.02 ± 0.04 (concentration: 0.1mM) and 0.995 ± 0.013 (concentration: 0.5mM).
In the case of UniProt O43829, the NP40-soluble protein abundance reads like this: (concentration: 0.1mM) 1.02 ± 0.026; (concentration: 0.5mM) 1.07 ± 0.029.
Take POLR1C (UniProt O15160): the NP40-soluble protein abundance worked out at 1.06 ± 0.061 (concentration: 0.1mM) and 1.03 ± 0.043 (concentration: 0.5mM).
UniProt O14763 and related entries: the NP40-soluble protein abundance came out at 0.93 ± 0.058 (concentration: 0.1mM) and 0.9535 ± 0.0039 (concentration: 0.5mM).
Turning to UniProt O43251-6|O43251-8, the NP40-soluble protein abundance reads like this: (concentration: 0.1mM) 1.14 ± 0.15; (concentration: 0.5mM) 1.1 ± 0.085.
For RNF13 (UniProt O43567) the same measures were 0.966 ± 0.044 and 0.961 ± 0.035.
For UniProt O60231 and related entries, the NP40-soluble protein abundance (concentration: 0.1mM) is 1.1 ± 0.047 and the NP40-soluble protein abundance (concentration: 0.5mM) came to 1.1 ± 0.03.
As to SH3BP5 (UniProt O60239), the NP40-soluble protein abundance reads like this: (concentration: 0.1mM) 0.995 ± 0.031; (concentration: 0.5mM) 0.986 ± 0.049.
